Source: publication PMC2956685, “The 14-3-3ζ Protein Binds to the Cell Adhesion Molecule L1, Promotes L1 Phosphorylation by CKII and Influences L1-Dependent Neurite Outgrowth” (PLoS ONE, 2010)
Results are given in words; binding and its absence hold for the method and conditions named. Binding can be weak; no strength is given.

Chains of the proteins cited; added tags and fusions are not shown. Lines headed by an entry give the natural chain unless they say otherwise; changes in a name come on top.
UniProt P11627: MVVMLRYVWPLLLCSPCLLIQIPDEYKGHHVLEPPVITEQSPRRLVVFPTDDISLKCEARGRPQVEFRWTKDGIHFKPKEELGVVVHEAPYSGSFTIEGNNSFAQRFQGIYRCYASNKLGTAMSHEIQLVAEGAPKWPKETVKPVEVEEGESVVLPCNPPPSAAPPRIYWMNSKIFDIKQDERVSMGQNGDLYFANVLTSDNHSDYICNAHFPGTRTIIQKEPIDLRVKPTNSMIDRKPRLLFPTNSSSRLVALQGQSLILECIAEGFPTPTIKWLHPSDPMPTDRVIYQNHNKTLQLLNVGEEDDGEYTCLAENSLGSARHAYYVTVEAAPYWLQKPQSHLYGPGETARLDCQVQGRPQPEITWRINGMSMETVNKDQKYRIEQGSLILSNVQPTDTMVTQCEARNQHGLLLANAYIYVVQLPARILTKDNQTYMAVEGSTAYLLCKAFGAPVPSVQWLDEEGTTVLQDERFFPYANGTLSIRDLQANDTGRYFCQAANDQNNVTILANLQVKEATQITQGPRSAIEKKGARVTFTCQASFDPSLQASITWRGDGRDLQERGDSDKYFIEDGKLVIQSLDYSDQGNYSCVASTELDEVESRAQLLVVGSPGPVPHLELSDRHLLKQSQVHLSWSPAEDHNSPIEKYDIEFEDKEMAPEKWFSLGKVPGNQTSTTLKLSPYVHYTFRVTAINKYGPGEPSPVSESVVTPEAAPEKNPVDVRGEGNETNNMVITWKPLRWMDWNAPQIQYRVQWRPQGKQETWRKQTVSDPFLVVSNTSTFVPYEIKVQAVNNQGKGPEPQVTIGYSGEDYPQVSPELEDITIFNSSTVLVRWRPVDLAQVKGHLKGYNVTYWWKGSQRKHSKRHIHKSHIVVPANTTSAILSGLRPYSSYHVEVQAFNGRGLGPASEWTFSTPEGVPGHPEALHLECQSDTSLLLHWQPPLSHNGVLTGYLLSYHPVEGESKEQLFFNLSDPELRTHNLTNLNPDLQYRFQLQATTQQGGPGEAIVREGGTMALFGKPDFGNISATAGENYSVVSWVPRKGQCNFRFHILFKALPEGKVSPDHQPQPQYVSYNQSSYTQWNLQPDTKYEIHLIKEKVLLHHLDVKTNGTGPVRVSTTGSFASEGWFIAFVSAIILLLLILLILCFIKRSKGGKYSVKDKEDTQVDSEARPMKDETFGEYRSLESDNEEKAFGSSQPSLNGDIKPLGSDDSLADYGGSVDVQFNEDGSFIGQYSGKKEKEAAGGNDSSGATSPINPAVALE

How the values were obtained:
GST-14-3-3ζ = GST-14-3-3ζ (UniProt P63104); assay: pull-down; 20 µg GST-14-3-3ζ (or 10 µg GST) on Glutathione Sepharose 4B beads; incubated with the whole reaction of His-L1ICD proteins (15 µg) treated with or without CKII; 20 mM Tris-HCl pH 7.4, 300 mM NaCl, Nonidet P-40; blot with anti-L1 74-5H7; both purified
[1] = target: His-L1ICD, non-phosphorylated (intracellular domain of L1) (mouse) (UniProt P11627); assay: ELISA; intracellular domains of L1 and NCAM180 (5 µg/ml) immobilised on microtiter wells in TBS; increasing concentrations of GST-14-3-3ζ, 1 h at RT, in 1% BSA, 1 mM CaCl2, 1 mM MgCl2 in TBS-Tween; detection with anti-GST; absorbance of GST-only wells subtracted; both purified

binding (GST-14-3-3ζ) | binding [1] | Molecule
binds |  | His-L1ICD, non-phosphorylated (intracellular domain of L1) (from UniProt P11627) (domain or fragment)
 | binds | GST-14-3-3ζ (natural protein, UniProt P63104 1-245, looked up) MDKNELVQKAKLAEQAERYDDMAACMKSVTEQGAELSNEERNLLSVAYKNVVGARRSSWRVVSSIEQKTEGAEKKQQMAREYREKIETELRDICNDVLSLLEKFLIPNASQAESKVFYLKMKGDYYRYLAEVAAGDDKKGIVDQSQQAYQEAFEISKKEMQPTHPIRLGLALNFSVFYYEILNSPEKACSLAKTAFDEAIAELDTLSEESYKDSTLIMQLLRDNLTLWTSDTQGDEAEAGEGGEN
